PubChem BioAssay AID1224828 | NIAID, 2016

Assay: 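Regulators linking TLR4 signalling to p65 nuclear translocation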 (primary screen)
System: mouse RAW264.7 G9 macrophage reporter cells (GFP-p65, Tnf promoter-mCherry)
Reagent: siRNA pool against mouse genes, 100 nM
Timing: 2 days siRNA transfection, then 40 min LPS before fixation
Challenge: LPS (Salmonella minnesota R595) at 10 ng/ml
Measured: 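Imaged p65 nuclear translocation ratio, normalised to the plate median, converted to robust z-scores and averaged across two replicates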
Scale: p65 translocation robust z-score: higher = more nuclear NF-kappaB p65 after LPS than the plate median; nuclear/cytoplasmic p65 ratio: higher = more nuclear NF-kappaB p65
Hit rule: 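Active if robust z is above 3.3 (negative regulators) or below -1.56, the Tlr4 control median (positive regulators); activity score 50 or more; control wells not called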
Meaning of the calls: active = hit (p65 shift raised or lowered); inactive = no clear change
Here is one part, drawn at random, of about 17,000 reagents. 762 of all reagents (4.5%) were called active. 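Active calls include both raised and lowered p65 entry, mostly lowered; wells with fewer than 50 cells lack a z-score.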 The raw values are shown without normalisation. A number with no mark means an inactive call. The numbers tell different reagents against one gene apart. Reagent sequences are not shown.

With knock-down of Fpr-rs6 (formyl peptide receptor, related sequence 6), the record shows p65 translocation robust z-score 2.9; nuclear/cytoplasmic p65 ratio, rep 1 = 1.98; nuclear/cytoplasmic p65 ratio, rep 2 = 1.9; low cell count flag enough cells to score. After knock-down of Tchp (trichoplein, keratin filament binding), the record shows p65 translocation robust z-score -0.23; nuclear/cytoplasmic p65 ratio, rep 1 = 1.32; nuclear/cytoplasmic p65 ratio, rep 2 = 1.53; low cell count flag enough cells to score. With knock-down of Or6c69b (olfactory receptor family 6 subfamily C member 69B), the record shows nuclear/cytoplasmic p65 ratio, rep 1 = 1.76; nuclear/cytoplasmic p65 ratio, rep 2 = 1.21; low cell count flag fewer than 50 cells per well; well left out of scoring. Silencing of Serf2 (small EDRK-rich factor 2) came out at: p65 translocation robust z-score -0.02; nuclear/cytoplasmic p65 ratio, rep 1 = 1.29; nuclear/cytoplasmic p65 ratio, rep 2 = 1.26; low cell count flag enough cells to score.

Reformatted: 2 of the entries above
gene | reagent | p65 translocation robust z-score | nuclear/cytoplasmic p65 ratio, rep 1 | nuclear/cytoplasmic p65 ratio, rep 2 | low cell count flag
Tchp (trichoplein, keratin filament binding) | 1 | -0.23 | 1.32 | 1.53 | enough cells to score
Or6c69b (olfactory receptor family 6 subfamily C member 69B) | 1 | – | 1.76 | 1.21 | fewer than 50 cells per well; well left out of scoring

The listing continues.
Dok1 (docking protein 1) scored p65 translocation robust z-score -0.88; nuclear/cytoplasmic p65 ratio, rep 1 = 1.54; nuclear/cytoplasmic p65 ratio, rep 2 = 1.28; low cell count flag enough cells to score. Casp3 (caspase 3) gave p65 translocation robust z-score 0.05; nuclear/cytoplasmic p65 ratio, rep 1 = 1.65; nuclear/cytoplasmic p65 ratio, rep 2 = 1.6; low cell count flag enough cells to score. Silencing of Dut (deoxyuridine triphosphatase) came out at: p65 translocation robust z-score -0.21; nuclear/cytoplasmic p65 ratio, rep 1 = 1.5; nuclear/cytoplasmic p65 ratio, rep 2 = 1.33; low cell count flag enough cells to score. For Ptges (prostaglandin E synthase) the deposit lists p65 translocation robust z-score -0.65; nuclear/cytoplasmic p65 ratio, rep 1 = 1.41; nuclear/cytoplasmic p65 ratio, rep 2 = 1.23; low cell count flag enough cells to score. Against Bnip2 (BCL2/adenovirus E1B interacting protein 2), the entry reads p65 translocation robust z-score -0.56; nuclear/cytoplasmic p65 ratio, rep 1 = 1.56; nuclear/cytoplasmic p65 ratio, rep 2 = 1.5; low cell count flag enough cells to score. Depletion of Fem1c (fem 1 homolog c) #1 gave: p65 translocation robust z-score 2.16; nuclear/cytoplasmic p65 ratio, rep 1 = 1.86; nuclear/cytoplasmic p65 ratio, rep 2 = 1.75; low cell count flag enough cells to score.

Knock-down of Fem1c (fem 1 homolog c) #2 gave: nuclear/cytoplasmic p65 ratio, rep 1 = 1.31; nuclear/cytoplasmic p65 ratio, rep 2 = 1.3; low cell count flag fewer than 50 cells per well; well left out of scoring. Kdr (kinase insert domain protein receptor) gave p65 translocation robust z-score 0.04; nuclear/cytoplasmic p65 ratio, rep 1 = 1.66; nuclear/cytoplasmic p65 ratio, rep 2 = 1.41; low cell count flag enough cells to score.
